Values quoted from earlier work, collected in patent US20070196465A1, “Treatment with dihydropyridine calcium channel blockers and omega-3 fatty acids and a combination product thereof” (priority 2005, published 2007).
For at least one compound, name, drawing or mass did not settle the structure.

Experiments:
cells = conditions: for effect on Bay K 8644-caused calcium influx and contracture: added with Bay K 8644; for effect on nitrendipine inhibition of cells: added with nitrendipine; for effect on ouabain toxicity: high concentrations of ouabain
heart = conditions: Finkel et al. 1992

Row | Structure (SMILES) | effect on calcium influx / cytosolic free calcium and cell contraction (cells; dihydropyridine alone) | effect on Bay K 8644-caused calcium influx and contracture (cells) | effect on nitrendipine inhibition of cells (cells) | effect on ouabain toxicity (cells) | effect on dihydropyridine action (L-type Ca^2+ channel; cells exposed simultaneously with Bay K 8644 or nitrendipine) | binding to Ca2+ channels (L-type Ca^2+ channel; conclusion of Pepe et al.) | inotropic effect (heart)
1 | CCOC(=O)C1=C(C)NC(C)=C(C(=O)OC)C1c1cccc([N+](=O)[O-])c1 (stereo not shown) [nitrendipine] | inhibits cytosolic free calcium and completely stops cell contractions | – | – | – | – | – | –
2 | CC/C=C\C/C=C\C/C=C\C/C=C\C/C=C\C/C=C\CCC(=O)O [DHA, docosahexaenoic acid] | – | may be prevented | can prevent this inhibitory effect on the cells | prevent toxicity of high concentrations of the cardiac glycoside ouabain | the effects of the dihydropyridine calcium channel blocker was inhibited | specifically binds to Ca^2+ channels at or near dihydropyridine binding sites | –
3 | CC/C=C\C/C=C\C/C=C\C/C=C\C/C=C\CCCC(=O)O [EPA, eicosapentaenoic acid] | – | may be prevented | can prevent this inhibitory effect on the cells | prevent toxicity of high concentrations of the cardiac glycoside ouabain | – | – | concentration-dependent negative inotropes
